# Literature values as cited in patent US11786515B2, “Anesthetic mixtures formulations for local anesthesia, at very low concentration, to be used cold with suitable packaging” (L. MOLTENI & C. DEI FRATELLI ALITTI-SOCIETA′ DI ESERCIZIO …, priority 2018, dated 2023).
# Structures can show the parent of a compound that is named as a salt.
# Details: cited from earlier work
smiles,measurement,setting,value
"CCN(CC)CC(=O)Nc1c(C)cccc1C [Lidocaine, Lidocaine hydrochloride]","toxic dose, total not to be exceeded",if used alone,≤ 300 mg
same,dosage usable without risk of toxic response,molecule in a cold and diluted solution,higher than 1 gram
